Assay results: PMC7819943, “Rice protein-binding microarrays: a tool to detect cis-acting elements near promoter regions in rice”
The list shows a part of the results.

Amino acid sequences for entries named in this document (tags omitted).
UniProt Q0JBA9, entry or part of it: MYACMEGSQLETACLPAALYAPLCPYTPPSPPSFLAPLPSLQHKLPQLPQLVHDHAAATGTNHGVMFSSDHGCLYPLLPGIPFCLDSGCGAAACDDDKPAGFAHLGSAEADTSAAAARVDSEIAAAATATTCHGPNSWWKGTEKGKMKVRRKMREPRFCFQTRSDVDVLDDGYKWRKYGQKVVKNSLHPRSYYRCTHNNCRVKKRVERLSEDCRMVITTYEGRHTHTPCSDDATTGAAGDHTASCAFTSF

target: OsWRKY34 (Oryza sativa, UniProt Q0JBA9 1-250); test: protein-binding microarray (RPBM); PBS, 2% BSA, 51.3 ng/ul salmon testes DNA, 50 uM zinc acetate, 200 nM TF, 25 C, 1 h; high values mean tight binding; conditions: protein: recombinant; tags: N-terminal polyhistidine and DsRed monomer fusion (pET32a); label: CyDye5-dUTP incorporated in the synthesized complementary strand; 3' TTTTT single-stranded linker to array surface; dsDNA, one strand shown
Summary of the method: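 A custom Agilent array was converted to double-stranded form by primer extension with Cy5-dUTP and blocked with 2% BSA. Protein at 200 nM in PBS with 2% BSA, salmon testes DNA and 50 µM zinc acetate was applied for 1 h at 25 °C, followed by washing. The proteins were polyhistidine–DsRed N-terminal fusions of transcription factors, expressed in E. coli BL21-CodonPlus and Ni–NTA-purified. The binding signal is per-feature fluorescence intensity (arbitrary units) from an Axon 4000B scanner.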

Q: Which binding signal does the source give for “AACTTTTTTCAGTCCTAGAATTTCCCGAAATTTCGCTTCTCGGAGTCACCTAGTGCAG” here?
A: Its binding signal is 10000 fluorescence intensity (a.u.).

Q: For “TATACCCCGTGCCGCCGACGTACGGCGCCGCCATGCCTCTCGGAGTCACCTAGTGCAG”, which binding signal is on record?
A: Its binding signal is 9570 fluorescence intensity (a.u.).

Q: For “GATAGAGATATCCTGCCTTCTGTCCTACCATCTTTCCATCCGGAGTCACCTAGTGCAG”, which binding signal is on record?
A: The binding signal was 9240 fluorescence intensity (a.u.).

Q: With “ATGAAATGTTTGTCATTTCTGGTGGGGCTGTTAGTTAATTCGGAGTCACCTAGTGCAG” as the sequence, how does the binding signal read?
A: The binding signal was 9970 fluorescence intensity (a.u.).

Q: How did the binding signal turn out when “ATATACCAGTCTACTCGTTTTTCTTCAAGTTATTATACTACGGAGTCACCTAGTGCAG” was run?
A: Its binding signal is 8960 fluorescence intensity (a.u.).

Q: Which binding signal does the source give for “CTTCGGTCTCGAACCGCGGCGACTTCTCCTCTTTGGGTTTCGGAGTCACCTAGTGCAG” here?
A: Its binding signal is 9010 fluorescence intensity (a.u.).

Q: Which binding signal does the source give for “TTCTTTTCCATGCGAGTTTTTACCTGGTCGCGCTTGGTCGCGGAGTCACCTAGTGCAG” here?
A: Its binding signal is 8710 fluorescence intensity (a.u.).

Q: For “TCTCTCTCTCTCTCTCTCTCTCTCTCTCTCTCTCTCTCTCCGGAGTCACCTAGTGCAG”, which binding signal is on record?
A: The binding signal was 8030 fluorescence intensity (a.u.).

Q: With “ACAACAACAATTTACTTAAACTTCTGCAGGCTACTATTTCCGGAGTCACCTAGTGCAG” as the sequence, how does the binding signal read?
A: Its binding signal is 8360 fluorescence intensity (a.u.).

Q: With “GGCTACCGCTCCGTCGACTTCCTCCCCTACGCGTCCCACGCGGAGTCACCTAGTGCAG” as the sequence, how does the binding signal read?
A: Its binding signal is 8030 fluorescence intensity (a.u.).

Q: How did the binding signal turn out when “GAGGGGCATTGGTCGGTTGGTTGAATCTTGAATGGTGAGACGGAGTCACCTAGTGCAG” was run?
A: Its binding signal is 16000 fluorescence intensity (a.u.).

Q: With “ATCCGAGTAATCGGGTATGATGCGCAGGGGTGGAGGGGATCGGAGTCACCTAGTGCAG” as the sequence, how does the binding signal read?
A: The binding signal was 9440 fluorescence intensity (a.u.).

Q: Which binding signal does the source give for “TCACATATTTTGCAGTGTCCTCGGGCAGTTTCACGTTTTCCGGAGTCACCTAGTGCAG” here?
A: Its binding signal is 11700 fluorescence intensity (a.u.).

Q: With “ATGCATTTTCTATTTCTTCTCACCCTCTTGCATTGACCCTCGGAGTCACCTAGTGCAG” as the sequence, how does the binding signal read?
A: The binding signal was 8370 fluorescence intensity (a.u.).

Q: “TTGCCTTTTCGTCTGGGTTCTTTTCTCGGTGGCCTCTGTTCGGAGTCACCTAGTGCAG” was tested. Which binding signal did it give?
A: The binding signal was 10700 fluorescence intensity (a.u.).

Q: “TTTTTTTTTCTCTCGGGGTTTTTATTGCTCGAGATGTTCTCGGAGTCACCTAGTGCAG” was tested. Which binding signal did it give?
A: The binding signal was 11200 fluorescence intensity (a.u.).

Q: With “AATTCACCATCTGCACCGATCTCCATCCTACGAGCGCCGGCGGAGTCACCTAGTGCAG” as the sequence, how does the binding signal read?
A: The binding signal was 9580 fluorescence intensity (a.u.).

Q: With “ACGTATACGTGTATTCCTCTTCTGTATTTTTCCATTTGATCGGAGTCACCTAGTGCAG” as the sequence, how does the binding signal read?
A: Its binding signal is 8830 fluorescence intensity (a.u.).

Q: With “CTCTTCATTCATAATTCATCTCCACATTCTTCATTCTCCACGGAGTCACCTAGTGCAG” as the sequence, how does the binding signal read?
A: The binding signal was 9490 fluorescence intensity (a.u.).

Q: “AAGGAGAGCGACTTGAGGGAGGGGTTGTGCTCGACGGAGTCGGAGTCACCTAGTGCAG” was tested. Which binding signal did it give?
A: The binding signal was 8040 fluorescence intensity (a.u.).

Q: With “AGTTTTTGTCTTGTCTGTTTCCTCTGCAATCGGTCCAACTCGGAGTCACCTAGTGCAG” as the sequence, how does the binding signal read?
A: Its binding signal is 10700 fluorescence intensity (a.u.).

Q: With “CCACTCCGGCGACTCCTCCGCCGCATCCCGAGCAAGCAAGCGGAGTCACCTAGTGCAG” as the sequence, how does the binding signal read?
A: Its binding signal is 8670 fluorescence intensity (a.u.).

Q: With “TCTCTTTCTCTCGCTTTCTTTTTGCATAGTTTTCTTCATGCGGAGTCACCTAGTGCAG” as the sequence, how does the binding signal read?
A: Its binding signal is 8700 fluorescence intensity (a.u.).

Q: For “CGCTCGCCGACTCGCGTTTTGTTTGTCACTTGTCACTAGTCGGAGTCACCTAGTGCAG”, which binding signal is on record?
A: Its binding signal is 8790 fluorescence intensity (a.u.).

Q: For “CGTGTGACCCATTTTTCGTTGGTACCAACGCGCGAGCTTGCGGAGTCACCTAGTGCAG”, which binding signal is on record?
A: The binding signal was 8280 fluorescence intensity (a.u.).

Q: “CTACCTTTTTAGCGATTTCTGCTCCGTCCTGCTGCTACCGCGGAGTCACCTAGTGCAG” was tested. Which binding signal did it give?
A: Its binding signal is 8220 fluorescence intensity (a.u.).

Q: How did the binding signal turn out when “TTTTTCTCGCCTTTTTTTCCACCGGACAACGGAAACTTCTCGGAGTCACCTAGTGCAG” was run?
A: Its binding signal is 9150 fluorescence intensity (a.u.).

Q: “CTACAATATAGTACATATATACTCGCTCCATTCCATCCCTCGGAGTCACCTAGTGCAG” was tested. Which binding signal did it give?
A: Its binding signal is 8320 fluorescence intensity (a.u.).

Q: Which binding signal does the source give for “AAATTTTTTGGTGTCACATCGGACGTTTGACCGGATGTCTCGGAGTCACCTAGTGCAG” here?
A: Its binding signal is 8630 fluorescence intensity (a.u.).

Q: For “ATTGATTTGCTTTTATCTAGTACTAGCTTTTTAAATCGCGCGGAGTCACCTAGTGCAG”, which binding signal is on record?
A: The binding signal was 8490 fluorescence intensity (a.u.).

Q: How did the binding signal turn out when “CTCCTTCTCTGCTTGGCGGGGCGGGCGGTGGTAATAACCGCGGAGTCACCTAGTGCAG” was run?
A: Its binding signal is 13000 fluorescence intensity (a.u.).

Q: “CAGGCTTTTGTTCATTTACATGCACCATTTTCTTTCTCATCGGAGTCACCTAGTGCAG” was tested. Which binding signal did it give?
A: The binding signal was 8500 fluorescence intensity (a.u.).

Q: How did the binding signal turn out when “CACACGCCCACAGCAACTATCACTCTTCATCATCATCTTCCGGAGTCACCTAGTGCAG” was run?
A: Its binding signal is 9200 fluorescence intensity (a.u.).

Q: How did the binding signal turn out when “ATCTCTGATCCGTCCAGTTGACCCAAAGCTAGAGTCTTTCCGGAGTCACCTAGTGCAG” was run?
A: The binding signal was 10700 fluorescence intensity (a.u.).

Q: With “TATCTATTTTCTTCTTGGGATCAATGTTGAAGTTCCAAATCGGAGTCACCTAGTGCAG” as the sequence, how does the binding signal read?
A: The binding signal was 8440 fluorescence intensity (a.u.).

Q: With “GTTTCACAATGTAAGTCATTCTAGCATTTCTCACATTCATCGGAGTCACCTAGTGCAG” as the sequence, how does the binding signal read?
A: Its binding signal is 8890 fluorescence intensity (a.u.).

Q: How did the binding signal turn out when “GATAAAACTTTACGGTGCATGTATTGGTCTCGGTCTACGACGGAGTCACCTAGTGCAG” was run?
A: Its binding signal is 9520 fluorescence intensity (a.u.).

Q: Which binding signal does the source give for “CTCCTCGTCTCCGCTCCTCTCTCCACGTGTTGACCAGGCCCGGAGTCACCTAGTGCAG” here?
A: The binding signal was 8900 fluorescence intensity (a.u.).

Q: With “ATAGTATTATATGCGCTTATTCTTATATGAACCATCATTACGGAGTCACCTAGTGCAG” as the sequence, how does the binding signal read?
A: Its binding signal is 8510 fluorescence intensity (a.u.).

Q: With “ATCCCGACCACCGCTCCTCCGCCTCCGCCTCTCATATTTTCGGAGTCACCTAGTGCAG” as the sequence, how does the binding signal read?
A: The binding signal was 12900 fluorescence intensity (a.u.).

Q: Which binding signal does the source give for “CCCGTCTACAGTCCGGTCGTTTGATTTAGTCACTTGGGTTCGGAGTCACCTAGTGCAG” here?
A: The binding signal was 8900 fluorescence intensity (a.u.).

Q: With “CCCTCTGTCCTATATCTCTTTCTGCTCTTCTGCTTCTTCTCGGAGTCACCTAGTGCAG” as the sequence, how does the binding signal read?
A: Its binding signal is 9090 fluorescence intensity (a.u.).
